Measurements reported in article PMC4891710 (Scientific Reports, 2016).

Assay: general procedure: Fmoc solid-phase peptide synthesis; Rink amide resin; HBTU/HOBt/DIPEA
Conditions: whole synthesis, analytical rpHPLC (Vydac C18), scale 0.25 mmol

## CH3-CONH-(XFEGYDNX)-CONH2 where X=O-allyl serine
  final HPLC purity: > 95%
